Measured values as given in PubChem BioAssay AID651640 (Broad Institute, 2012).
Hit rate of the full screen: of about 350,000 compounds, about 6,000 (1.7%) were called active. Inconclusive means that the source gave no clear call. Such entries were picked first, then a sample of the others. Cut-off read from the data, not from the text of the source: active = CPE inhibition above about 20% (passing the limit was not always enough); inconclusive = no clear call, values can overlap the other calls; tested in BHK-21 cells. The source holds several records for some structures; these can differ, active in one and inactive in another.

Experiment: protection of cells from dengue 2 killing – plate reader, single concentration, primary screen (AID 651640);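 note: 0% = median of neutral control wells and 100% = median of positive control wells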
Details: DENV2-infected cells, cytopathic effect rescue, at 9.99 µM, active compounds read high

SMILES | CPE inhibition
Cc1nn(-c2ccccc2)c(C)c1/C=N/NC(=O)c1cccs1 | inconclusive: 59.4%
CC(C)C[C@H](NC(=O)c1nc[nH]c1C(=O)NC1CCN(C(=O)OC(C)(C)C)CC1)C(=O)OC(C)(C)C | active: 49.6%
COc1ccc(C2=NS(=O)(=O)N(C)C(C(=O)Nc3ccc4c(c3)OCO4)=C2)cc1 | inconclusive: 31.9%
CC(C)(C)[C@@H]1C=C(C(=O)N2CCN(Cc3ccc4c(c3)OCO4)CC2)O[C@H](OCc2ccc(CO)cc2)C1 | active: 33.7%
CCCCCN(C(=O)CCC(=O)OCc1cc(C)ccc1C)c1c(N)n(CCCC)c(=O)[nH]c1=O | inconclusive: 20.6%
CCC(=O)N1CC(=O)N2[C@H](CO)[C@H](c3ccc(-c4cccnc4)cc3)[C@H]2C1 | inconclusive: 20.8%
Cc1cccc(C)c1NC(=O)C(C)Sc1nnc(C)n1CC1CCCO1 (centres undefined) | inconclusive: 44.2%
COc1ccc(NC(=O)N(C)C[C@@H]2Oc3c(NC(=O)C4CC4)cccc3C(=O)N([C@H](C)CO)C[C@@H]2C)cc1 | inconclusive: 28.9%
COc1ccc(NC(=O)N(C)C[C@H]2Oc3ccc(NS(=O)(=O)c4c(C)noc4C)cc3C(=O)N([C@H](C)CO)C[C@@H]2C)cc1 | active: 22%
C/C=C/c1ccc2c(c1)O[C@@H](CN(C)Cc1ccc(F)cc1)[C@H](C)CN([C@H](C)CO)S2(=O)=O | inconclusive: 39.8%
CC(=O)N1[C@H](CO)[C@@H](c2ccccc2)C12CN(C(=O)c1ccc3c(c1)OCO3)C2 | active: 55.3%
COc1ccc(Br)cc1CN(C)CC(=O)NCCc1ccc(S(N)(=O)=O)cc1 | inactive: -0.111%
N#C/C(=C(/O)Cc1ccccc1)P(=O)(c1ccccc1)c1ccccc1 | inconclusive: 35.3%
C[C@H](CO)N1C[C@H](C)[C@H](CN(C)CC2CC2)Oc2c(cccc2N(C)C)C1=O | active: 43.8%
CCCNC(=O)[C@@H]1[C@@H](CO)[C@@H]2Cn3c(ccc(-c4ccccc4)c3=O)[C@@H]2N1CC1CC1 | inconclusive: 29.8%
COc1ccc(CCNC(=O)c2nnn(CC(=O)Nc3c(C)cc(C)cc3C)c2N)cc1OC | inconclusive: 26.7%
O=C(c1ccccc1[N+](=O)[O-])N1CCCC(C(=O)N2CCCCCC2)C1 (centres undefined) | inconclusive: 22.1%
CN(C)CCCNC(=O)C[C@@H]1CC[C@H]2[C@@H](COC[C@H](O)CN2S(=O)(=O)c2ccc(F)cc2)O1 | inconclusive: 55.8%
CC(C)CNc1ncnc2c1ncn2[C@H]1CN(Cc2ccncc2)C[C@@H](CO)O1 | inconclusive: 33.9%

Part of the list above in order of number of heavy atoms, low to high.
SMILES | CPE inhibition
C[C@H](CO)N1C[C@H](C)[C@H](CN(C)CC2CC2)Oc2c(cccc2N(C)C)C1=O | active: 43.8%
CN(C)CCCNC(=O)C[C@@H]1CC[C@H]2[C@@H](COC[C@H](O)CN2S(=O)(=O)c2ccc(F)cc2)O1 | inconclusive: 55.8%
CCCCCN(C(=O)CCC(=O)OCc1cc(C)ccc1C)c1c(N)n(CCCC)c(=O)[nH]c1=O | inconclusive: 20.6%
